# The other results are listed elsewhere or left out.
# Protein sequences, listed by entry. Tags and fused reporters are not part of them.
# UniProt Q0JBA9, entry or part of it: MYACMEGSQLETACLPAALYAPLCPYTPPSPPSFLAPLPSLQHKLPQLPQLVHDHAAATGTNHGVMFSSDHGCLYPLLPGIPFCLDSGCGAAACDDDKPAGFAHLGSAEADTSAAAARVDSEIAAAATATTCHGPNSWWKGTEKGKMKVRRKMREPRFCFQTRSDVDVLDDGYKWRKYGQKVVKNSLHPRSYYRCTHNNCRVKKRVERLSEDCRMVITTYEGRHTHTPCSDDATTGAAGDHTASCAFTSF
# Biological target: OsWRKY34 (Oryza sativa, UniProt Q0JBA9 1-250)
# Experiment: protein-binding microarray (RPBM); PBS, 2% BSA, 51.3 ng/ul salmon testes DNA, 50 uM zinc acetate, 200 nM TF, 25 C, 1 h; high values mean tight binding
# Conditions: protein: recombinant; tags: N-terminal polyhistidine and DsRed monomer fusion (pET32a); label: CyDye5-dUTP incorporated in the synthesized complementary strand; 3' TTTTT single-stranded linker to array surface; dsDNA, one strand shown
# In short: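 Polyhistidine-tagged DsRed fusions of transcription factors, joined at the N-terminus, were expressed in E. coli BL21-CodonPlus and isolated on Ni–NTA. They were incubated at 200 nM for 1 h at 25 °C on a custom Agilent array, double-stranded and BSA-blocked, in PBS with 2% BSA, salmon testes DNA and 50 µM zinc acetate. The binding signal is per-feature fluorescence intensity (arbitrary units) read on an Axon 4000B scanner after washing.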
row,Sequence,binding signal
1,CATTTCATCTTTTTCTTTATTCGAATGCATGTATCCTAGACGGAGTCACCTAGTGCAG,9080 fluorescence intensity (a.u.)
2,ACACTTACTCCTATCAAAGCAAGACCCTCACTTTGGCATCCGGAGTCACCTAGTGCAG,9270 fluorescence intensity (a.u.)
3,AGCATTCATATCACATCGGTTTTCGTACTTTTAGCCGGATCGGAGTCACCTAGTGCAG,9460 fluorescence intensity (a.u.)
4,ACCATCATTTTCATTGTTTGTGTTACTTTCCGGCGTCCTACGGAGTCACCTAGTGCAG,9900 fluorescence intensity (a.u.)
5,ATTTGAATATACCTTTTTTTTCTTAAGTTCAGTTCAATTCCGGAGTCACCTAGTGCAG,8080 fluorescence intensity (a.u.)
6,AAGTCCATAGCCCATTTTTATCGATCTGATTTCTAAAAAACGGAGTCACCTAGTGCAG,9950 fluorescence intensity (a.u.)
7,GACAAGGCCCCTCGCACCCCACAGGCCCATCCCATCCCACCGGAGTCACCTAGTGCAG,8890 fluorescence intensity (a.u.)
8,CGCCTGTAGTTTCCTACTTTCTCATGTCAATGTGTGCATGCGGAGTCACCTAGTGCAG,10700 fluorescence intensity (a.u.)
9,CTCCTCTCTCGCTCACTCCTCGCTCCTCTGTACTGTATCCCGGAGTCACCTAGTGCAG,12700 fluorescence intensity (a.u.)
10,GGTTTCCATTTCGGTACATCGATCTTTTTACAATTAGATCCGGAGTCACCTAGTGCAG,9730 fluorescence intensity (a.u.)
11,GATGTACTCCTCCGGCCACCACCAATCAAACCAGTCCACTCGGAGTCACCTAGTGCAG,8320 fluorescence intensity (a.u.)
12,GCCCACCGCAATTCATTCCTCATCCGTCTCGGTCTTGGAGCGGAGTCACCTAGTGCAG,9230 fluorescence intensity (a.u.)
13,CGCTATGTTTTGAGTGTGTATGTGGGTTGGAGGGAGGAGGCGGAGTCACCTAGTGCAG,8330 fluorescence intensity (a.u.)
14,GCAACGTGATCTCAGTTATTGCATGCTCTCCGTGCCGTATCGGAGTCACCTAGTGCAG,8160 fluorescence intensity (a.u.)
15,GTGTGGTTTGGTTTGGGAGGAGTTCGGTTTTTTCAGAATGCGGAGTCACCTAGTGCAG,12200 fluorescence intensity (a.u.)
16,ATTTTCTAAACCTCCTTATTCTCTCTCTAATTTTCTATTTCGGAGTCACCTAGTGCAG,8450 fluorescence intensity (a.u.)
17,AACCAATTCCATAACCCCTAGGCTATTTTGCGAGACAAATCGGAGTCACCTAGTGCAG,9340 fluorescence intensity (a.u.)
18,CCTATGCCCCAGTATCAGTACACATTCCTACCTCAATGATCGGAGTCACCTAGTGCAG,8740 fluorescence intensity (a.u.)
19,CTGCCACCACCGTCGCCGCGGCTTACACGTCTTCTTCGCCCGGAGTCACCTAGTGCAG,9280 fluorescence intensity (a.u.)
20,ATTTCGTTCTAGCTCTGTCCCTGTCCCTGGGCCCTGTATACGGAGTCACCTAGTGCAG,8700 fluorescence intensity (a.u.)
21,CATGTTCTGAAATCTGAAGGTCTTGTGTGTTTGTTCCGATCGGAGTCACCTAGTGCAG,8760 fluorescence intensity (a.u.)

row,Sequence,binding signal
1,ATCCGCTTACCACACTAAGTGCATGCACTCACAAATTTACCGGAGTCACCTAGTGCAG,8500 fluorescence intensity (a.u.)
2,CTCCATTATGGGCTTCTGTGGGCCTACTCCTCGATTCGTTCGGAGTCACCTAGTGCAG,8500 fluorescence intensity (a.u.)
3,CTGCTTTCTCGATTAGACCGTGTGTTTAGTGTGAAATTTTCGGAGTCACCTAGTGCAG,8360 fluorescence intensity (a.u.)
4,ATTTTGATTTTTGCAATCACCACCCCGCGCGGCGCAAACACGGAGTCACCTAGTGCAG,8880 fluorescence intensity (a.u.)
5,GGGCGACAAGCACGCGTATACCCATCTATCATCCCGCTCCCGGAGTCACCTAGTGCAG,8390 fluorescence intensity (a.u.)
6,ATCCAGCTCCGGCCTGTCTGTCCTGCTTGTATCCAAGTGTCGGAGTCACCTAGTGCAG,9540 fluorescence intensity (a.u.)
7,CCGCTCGCCGCCGGGACCCCGCACCGCAAATCGTCGTCCTCGGAGTCACCTAGTGCAG,8480 fluorescence intensity (a.u.)
8,GGGCTTGTTCAGATTGATGACATTTTCAACCATACCATATCGGAGTCACCTAGTGCAG,9210 fluorescence intensity (a.u.)
9,CGCGAGACAATCTAGCCGTTCTTCATTTTTTTCGCTTTCCCGGAGTCACCTAGTGCAG,9240 fluorescence intensity (a.u.)
10,GGCTTTCTCGTTTTAGTTGTCCATACTTCCTATTTCTATACGGAGTCACCTAGTGCAG,13800 fluorescence intensity (a.u.)
11,CTTTTTTGTATGCTGGTGTTTTTGGCTGGCCCTAAGTTTTCGGAGTCACCTAGTGCAG,13400 fluorescence intensity (a.u.)
12,TTCTATTTCACTAATTGTGTGTGTTCATTGCTAGTTGCATCGGAGTCACCTAGTGCAG,8850 fluorescence intensity (a.u.)
13,ACATTCCAAAATTTGACCAAATTTGTTCACTCGTTGACTGCGGAGTCACCTAGTGCAG,13100 fluorescence intensity (a.u.)
14,ACGCTCCACTCGCCTCGCTGCAGCAACCTCCTTCGCTCGACGGAGTCACCTAGTGCAG,9520 fluorescence intensity (a.u.)
15,GGGGCTCGTGATGGCGGTGTGGGTGCAATGCTTCTTTGGCCGGAGTCACCTAGTGCAG,9940 fluorescence intensity (a.u.)
16,TTTTAACTGTCATACTCACACATGTTCGATGAACTTTCGACGGAGTCACCTAGTGCAG,8480 fluorescence intensity (a.u.)
17,ACCTTTTATGGTGGGGTAGGAGTAGGTGACGGTGGAGATTCGGAGTCACCTAGTGCAG,19000 fluorescence intensity (a.u.)
18,TTCTTATGGTTTATATGGACTATTCTTGTCCTTAAGGTTTCGGAGTCACCTAGTGCAG,8750 fluorescence intensity (a.u.)
19,AAGCGCATATTGGGCCACTCTTTTTAACCATTGTTGCAACCGGAGTCACCTAGTGCAG,8580 fluorescence intensity (a.u.)
20,TCCCTTCAACCCCGTATGGCAAGTCCACCACTCCTTTCTTCGGAGTCACCTAGTGCAG,8380 fluorescence intensity (a.u.)
21,TGGTTTTGTATAGTTAATGGACCCCGTATATCTGGTTTTGCGGAGTCACCTAGTGCAG,9610 fluorescence intensity (a.u.)

# Taken from the listing (2 entries):
row,Sequence,binding signal
7,CCGCTCGCCGCCGGGACCCCGCACCGCAAATCGTCGTCCTCGGAGTCACCTAGTGCAG,8480 fluorescence intensity (a.u.)
8,GGGCTTGTTCAGATTGATGACATTTTCAACCATACCATATCGGAGTCACCTAGTGCAG,9210 fluorescence intensity (a.u.)

# — publication PMC7819943, “Rice protein-binding microarrays: a tool to detect cis-acting elements near promoter regions in rice”
